From PubChem BioAssay AID624415 (National Center for Advancing Translational Sciences (NCATS), 2012)
Hit rate of the full screen: of about 390,000 compounds, about 60 (0.02%) were called active. This list was built around the results that the source calls inconclusive (neither active nor inactive); the mix of calls is not that of the screen. Cut-off read from the data, not from the text of the source: active = activity change below about -50%; inconclusive = between about -30% and that limit; inactive = weaker than that.

The chains behind the UniProt entries cited, without tags or fusion partners.
UniProt Q9GZU1, whole entry, looked up: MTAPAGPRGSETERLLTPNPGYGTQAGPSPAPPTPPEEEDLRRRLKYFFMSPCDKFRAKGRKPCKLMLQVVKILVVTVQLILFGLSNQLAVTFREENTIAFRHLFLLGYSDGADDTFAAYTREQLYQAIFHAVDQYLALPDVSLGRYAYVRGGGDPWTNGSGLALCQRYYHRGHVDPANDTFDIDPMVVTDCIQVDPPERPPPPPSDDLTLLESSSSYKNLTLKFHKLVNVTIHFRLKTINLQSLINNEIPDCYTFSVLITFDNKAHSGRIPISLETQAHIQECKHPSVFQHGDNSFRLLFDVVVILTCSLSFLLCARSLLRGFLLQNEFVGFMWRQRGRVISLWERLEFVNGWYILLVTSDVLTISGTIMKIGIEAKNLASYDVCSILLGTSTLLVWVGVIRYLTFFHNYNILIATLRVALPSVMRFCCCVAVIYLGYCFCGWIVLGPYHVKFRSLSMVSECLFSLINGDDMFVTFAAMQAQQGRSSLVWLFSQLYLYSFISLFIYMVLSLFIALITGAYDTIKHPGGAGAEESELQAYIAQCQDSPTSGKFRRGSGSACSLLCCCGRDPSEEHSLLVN

Each compound was assayed against Mucolipin-1 (Homo sapiens) (UniProt Q9GZU1) (assay: qHTS for Inhibitors of the Human Mucolipin Transient Receptor Potential 1 (TRPML1)). Settings: TRPML1-inducible cells, Ca2+ dye fluorescence, FDSS; active compounds read low; inhibition of EC80 agonist-evoked calcium signal.
In short: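 Tet-induced TRPML1-DL cells loaded with Ca8 no-wash calcium dye were read kinetically on FDSS. Compound addition was followed by EC80 agonist 54-4 (4 uM final); inhibition was read over 110 s.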
% is set by controls: 0 for no effect and ±100 for the full control effect.
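Note: stimulus is agonist 54-4 at its EC80 concentration.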

Compound	activity change, negative = inhibition
CC(=O)c1ccc(C(=O)N(Cc2cccnc2)c2nc3c(C)c(C)ccc3s2)cc1	inconclusive: -32.6%
C=CCc1c(C)[nH]c2ccc(C)cc2c1=O	inconclusive: -41.8%
CC(C)c1ccc(NC(=O)C2CCCN(S(=O)(=O)c3cnc[nH]3)C2)cc1 (stereo not given)	inconclusive: -34.1%
O=C(CC1C(=O)NCCN1Cc1cccc(C(F)(F)F)c1)NC1CCOCC1 (stereo not given)	inconclusive: -35.6%
Cc1cc(Br)ccc1SCC(=O)OCC(=O)Nc1ccccc1C#N	inconclusive: -30.4%
CN1C(=O)c2cccc(NCCCCCCN3C(=O)c4ccccc4C3=O)c2C1=O	inactive: -8.79%
CCOC(=O)c1c(C)[nH]c(C(=O)OCC(=O)Nc2sc(C(=O)N(C)C)c(C)c2C(=O)OCC)c1C	inconclusive: -33.8%
CCOc1ccc(CCNC(=O)c2cnc3c(-c4ccc(F)cc4)c(C)nn3c2C)cc1	inconclusive: -35.5%
COc1ccc(Cc2nc3c([nH]2)c(=O)n(C)c(=O)n3C)cc1OC	inconclusive: -33.4%
O=c1cc(CN2CCCc3ccccc32)nc2sccn12	inconclusive: -36.3%
COc1ccc(-n2c(C)cc(C(=O)CN3C(=O)C(=O)N(Cc4ccccc4)C3=O)c2C)cc1	inconclusive: -34%
CCCOc1ccc(C2C(=O)N(C3CCC(C)CC3)CC(=O)N2CCc2ccccc2)cc1OC (stereo not given)	inactive: 9.93%
Cc1ccc2ccccc2c1NC(=O)c1ccco1	inconclusive: -32.6%
CCOC(=O)c1cc(C)sc1NC(=O)CSc1nnnn1C	inactive: 29.3%
CCn1cc([N+](=O)[O-])c(C(=O)Nc2ccn(C34CC5CC(CC(C5)C3)C4)n2)n1	inconclusive: -30.9%
CC(C)c1ccc(/C=C2\SC(=S)N(CCC(=O)NCCCn3ccnc3)C2=O)cc1	inactive: -0.484%
O=C(COC(=O)c1cc(=O)[nH]c(=O)[nH]1)Nc1cccc(S(=O)(=O)N2CCCCC2)c1	inconclusive: -47.5%
COCCNS(=O)(=O)c1ccc2c(c1)C(=O)c1cc(S(=O)(=O)NCCOC)ccc1-2	inactive: 10.8%
CCC(C(=O)Nc1nnc(-c2ccco2)s1)c1ccccc1 (stereo not given)	inconclusive: -30.2%
Cn1c(Cn2c(=O)sc3ccccc32)nnc1SCc1cccnc1	inconclusive: -31%
O=C(c1ccc(F)cc1)N1CCC(N2CCCCCC2)CC1	inconclusive: -31.1%
COCCn1c(C)cc(C(=O)COC(=O)c2ccccc2Br)c1C	inactive: 7.58%

As entered above.
For activity change, negative = inhibition, Cn1c(Cn2c(=O)sc3ccccc32)nnc1SCc1cccnc1 is listed with inconclusive: -31%
For activity change, negative = inhibition, CCC(C(=O)Nc1nnc(-c2ccco2)s1)c1ccccc1 (stereo not given) is listed with inconclusive: -30.2%
For activity change, negative = inhibition, COCCNS(=O)(=O)c1ccc2c(c1)C(=O)c1cc(S(=O)(=O)NCCOC)ccc1-2 is listed with inactive: 10.8%

(continued)

Compound	activity change, negative = inhibition
CCN(CC)CCN1C(=O)c2cccc3cc(N)cc(c23)C1=O	inconclusive: -41.5%
Oc1ccc(Cl)cc1C1=Nc2ccccc2N=C(c2ccccc2)C1	inconclusive: -44.3%
O=S(=O)(Nc1ccccn1)c1ccc(Br)cc1	inconclusive: -44.9%
CC(C)CC(=O)Nc1nnc(S(=O)(=O)N2CCc3ccccc32)s1	inconclusive: -31.9%
Cc1cc(NS(=O)(=O)c2ccc(C(C)C)cc2)no1	inconclusive: -30.9%
CCn1c(SC)nc2cc(S(=O)(=O)N3CCCCC3)ccc21	inconclusive: -33.2%
COc1ccc(NC(=O)CN2C(=O)CSc3ccc(S(=O)(=O)N4CCCC4)cc32)cc1OC	inconclusive: -30.7%
C/C(=C\C(=O)O)CC(=O)O	inconclusive: -35.1%
CCCN1Cc2cccc(C(=O)Nc3cc(OC)cc(OC)c3)c2C1=O	inconclusive: -33%
Cc1ccc(-n2ncc(C(=O)NCCCN3CCCCC3)c2C2CCN(C(=O)OC(C)(C)C)CC2)cc1	inactive: 11.6%
Cc1nc2ccccc2c(=O)n1/N=C/c1ccccc1Cl	inactive: -15.1%
OCCC1CN(C2CCN(c3ccccc3F)CC2)CCN1Cc1ccccc1 (stereo not given)	inconclusive: -35.7%
CCCC(=O)NCC1(N(C)C)CCCCC1	inconclusive: -31.4%
Cc1cccc(N2CCN(C(=O)c3ccc4ccccc4c3)CC2C)c1 (stereo not given)	inconclusive: -33.8%
COc1ccccc1CCNC(=O)C1CCC(=O)N(Cc2cccc(F)c2)C1 (stereo not given)	inconclusive: -30.4%
COc1cc(C(C)=O)ccc1OCC(O)CN1CCN(S(=O)(=O)c2ccccc2)CC1 (stereo not given)	inconclusive: -36.7%
NCCc1c(-c2ccccc2)n(-c2ccccc2)c2ccccc12	inconclusive: -33.1%
CN1C(=O)NC(c2ccc(C(F)(F)F)cc2)C2=C1CC(C)(C)CC2=O (stereo not given)	inconclusive: -30.1%
COc1ccc(OC)c(C2C(C(=O)Nc3ccc(C)cc3)=C(C)Nc3nnnn32)c1 (stereo not given)	inactive: -15.5%
O=C(N/N=C/c1ccc(F)cc1)c1ccc(OCc2ccccc2)cc1	inconclusive: -32.8%
O=C1c2ccccc2NC(c2cn[nH]c2-c2ccccc2)N1O (stereo not given)	active: -58.2%
COc1ccc(S(=O)(=O)n2cccc2)cc1	inconclusive: -33.5%

Compound	activity change, negative = inhibition
CCN1CCN(C2=CC3=CC(=C(C#N)C#N)CCC3CC2)CC1 (stereo not given)	inactive: -7.28%
CN(C)C(=O)C(=O)c1cccn1-c1cccc(Cl)c1C#N	inconclusive: -38.6%
COC(=O)c1nnn(-c2ccsc2C(=O)OC)c1C(=O)OC	inconclusive: -30.4%
CC(=O)c1ccc(OC(C)C(=O)OCC(=O)NCCc2ccccc2)cc1 (stereo not given)	inconclusive: -31.4%
CC(C)NC1=C(Cl)C(=O)c2ccccc2C1=O	inactive: 23.7%
CCN(CC)CCC(=O)N1c2ccccc2CCc2ccc(NC(=O)OC)cc21	inconclusive: -44.7%
C#CCN(C[C@H]1[C@H](OC(=O)Nc2c(C)noc2C)[C@H](OC(=O)Nc2c(C)noc2C)C[C@H]2C(=O)N(c3ccccc3)C(=O)[C@@H]12)S(=O)(=O)c1ccc(C)cc1	inconclusive: -43.8%
CCCNS(=O)(=O)c1ccc(CCC(=O)N2CCOCC2)cc1	inconclusive: -30.6%
Cc1[nH]c(=O)[nH]c(=O)c1/C=N/NC(=O)[C@@H](N)CC(C)C	inconclusive: -38.6%
COC(=O)c1ccc2nc(-c3ccc(F)cc3)c(Cc3ccsc3)n2c1	inconclusive: -44.6%
NC(=O)CC(NC(=O)c1ccccc1)c1ccc(N2CCN(c3ccccn3)CC2)c([N+](=O)[O-])c1 (stereo not given)	inactive: 33%
Cn1cc(S(=O)(=O)NC2CCCCCC2)c(=O)n(C)c1=O	inconclusive: -30.2%
Cc1ccc(C(C)C)cc1OCC(=O)NCCCn1ccnc1	inconclusive: -37%
CCOc1ccc(OCCOCCNCCOC)cc1	inactive: -24.9%
CC1(C)OCC(C2CC(c3ccccc3)NS(=O)(=O)O2)O1 (stereo not given)	inconclusive: -30.5%
Cn1nnnc1SCC(=O)NC1CCCc2ccccc21 (stereo not given)	inconclusive: -35.3%
COC(=O)CC1C(=O)NCCN1C(=S)NC(=O)CCc1ccccc1 (stereo not given)	inconclusive: -31.3%
COc1ccccc1-n1c(=S)[nH]c2c(sc(=S)n2-c2ccccc2)c1=O	inconclusive: -33.7%
CCOC(=O)c1noc2ncnc(Nc3ccc(C)c(F)c3)c12	inactive: -6.95%
O=C(Cc1cccs1)N1CCN=C1SCc1ccccc1Cl	inconclusive: -35.5%
O=C(Nc1nc(-c2ccccn2)cs1)Nc1ccc(F)cc1F	inconclusive: -31.3%
